No constants are given. Whether binding was seen depends on the method and setting. Binding calls can cover weak binding; strength is not graded here. Where a sequence is shown, tags or fusion partners need not be part of it.
B1: B-BOX 18 (BBX18), yeast two-hybrid fusion (protein, UniProt Q9SJU5 1-172)
chain: MRILCDACESAAAIVFCAADEAALCCSCDEKVHKCNKLASRHLRVGLADPSNAPSCDICENAPAFFYCEIDGSSLCLQCDMVVHVGGKRTHRRFLLLRQRIEFPGDKPNHADQLGLRCQKASSGRGQESNGNGDHDHNMIDLNSNPQRVHEPGSHNQEEGIDVNNANNHEHE
B2: BBX19, yeast two-hybrid fusion (protein, UniProt C0SVM5 1-183)
chain: MRILCDACENAAAIIFCAADEAALCRPCDEKVHMCNKLASRHVRVGLAEPSNAPCCDICENAPAFFYCEIDGSSLCLQCDMVVHVGGKRTHGRFLLLRQRIEFPGDKPKENNTRDNLQNQRVSTNGNGEANGKIDDEMIDLNANPQRVHEPSSNNNGIDVNNENNHEPAGLVPVGPFKRESEK

Experiments:
Test in all cases: two-hybrid; pGADT7 and pGBKT7 constructs co-transformed into yeast AH109; growth on -LT and on -LTH with various concentrations of 3-AT
[1] = biological target: PRR5 truncation containing the PR domain (Arabidopsis thaliana)
[2] = biological target: PRR9, yeast two-hybrid fusion (Arabidopsis thaliana)
[3] = biological target: PRR7, yeast two-hybrid fusion (Arabidopsis thaliana)

| Binder | binding [1] | binding [2] | binding [3] |
| --- | --- | --- | --- |
| B1 | binds | no binding | binds |
| B2 | – | binds | – |

Reference: article PMC8651621
